Data: the supplement of paper PMC4604168 (melanoma cell lines)
The other results are listed elsewhere or left out. Repeats are few or missing, and single values can be far off.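 Cells were imaged in 1,536-well plates, and nuclei stained with an antibody against cleaved PARP were counted against all DNA-stained nuclei to give the apoptosis fraction. Screening doses were chosen to leave most cells alive, and resting and induced cleaved-PARP levels differ strongly between cell lines.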

What was measured:
Assay in all cases: cleaved PARP positive nuclei fraction relative to DMSO control; melanoma cells; higher = more apoptosis
Conditions in all cases: library dose: low library concentration; 72 h
501Mel = tested on: 501Mel
A101D = tested on: A101D
A2058 = tested on: A2058
A375 = tested on: A375
C32 = tested on: C32
CBRC008 = tested on: CBRC008 (line from a melanoma biopsy)
CBRC014 = tested on: CBRC014 (line from a melanoma biopsy)
CBRC016 = tested on: CBRC016 (line from a melanoma biopsy)
CBRC017 = tested on: CBRC017 (line from a melanoma biopsy)

SMILES	cleaved PARP positive nuclei fraction (501Mel) [%]	cleaved PARP positive nuclei fraction (A101D) [%]	cleaved PARP positive nuclei fraction (A2058) [%]	cleaved PARP positive nuclei fraction (A375) [%]	cleaved PARP positive nuclei fraction (C32) [%]	cleaved PARP positive nuclei fraction (CBRC008) [%]	cleaved PARP positive nuclei fraction (CBRC014) [%]	cleaved PARP positive nuclei fraction (CBRC016) [%]	cleaved PARP positive nuclei fraction (CBRC017) [%]
CC[C@]1(O)C[C@H]2CN(CCc3c([nH]c4ccccc34)[C@@](C(=O)OC)(c3cc4c(cc3OC)N(C=O)[C@H]3[C@@](O)(C(=O)OC)[C@H](OC(C)=O)[C@]5(CC)C=CCN6CC[C@]43[C@@H]65)C2)C1 [vincristine] + CO[C@H]1C[C@@H]2CC[C@@H](C)[C@@](O)(O2)C(=O)C(=O)N2CCCC[C@H]2C(=O)O[C@H]([C@H](C)C[C@@H]2CC[C@@H](OCCO)[C@H](OC)C2)CC(=O)[C@H](C)/C=C(\C)[C@@H](O)[C@@H](OC)C(=O)[C@H](C)C[C@H](C)/C=C/C=C/C=C/1C [everolimus] (first compound 0.0001 µM, partner dose 0.02 µM)	490	173	2150	888	119	508	89.5	92.5	107
N#CC[C@H](C1CCCC1)n1cc(-c2ncnc3[nH]ccc23)cn1 [ruxolitinib] + COc1cc([C@@H]2c3cc4c(cc3[C@@H](O[C@@H]3O[C@@H]5CO[C@@H](C)O[C@H]5[C@H](O)[C@H]3O)[C@H]3COC(=O)[C@H]23)OCO4)cc(OC)c1O [etoposide] (first compound 1 µM, partner dose 0.02 µM)	58.3	155	69	47.2	–	55.5	79.8	198	110
N#CC[C@H](C1CCCC1)n1cc(-c2ncnc3[nH]ccc23)cn1 [ruxolitinib] + COc1cc(N2CCC(N3CCN(C)CC3)CC2)ccc1Nc1ncc(Cl)c(Nc2ccccc2S(=O)(=O)C(C)C)n1 [NVP-TAE684] (first compound 1 µM, partner dose 0.08 µM)	62.6	49.5	104	–	65.2	157	82.8	95	108
CCCCCCCCCCCCCCCCCCOP(=O)([O-])OC1CC[N+](C)(C)CC1 [Perifosine] + COc1ccc(-c2ccc3c(N4CCOCC4)nc(N4C[C@@H](C)O[C@@H](C)C4)nc3n2)cc1CO [KU0063794] (first compound 0.4 µM, partner dose 0.02 µM)	160	25.1	84.5	–	127	116	99	52.7	62.5
CCCCCCCCCCCCCCCCCCOP(=O)([O-])OC1CC[N+](C)(C)CC1 [Perifosine] + CCCS(=O)(=O)Nc1ccc(F)c(C(=O)c2c[nH]c3ncc(Cl)cc23)c1F [PLX4720] (first compound 0.4 µM, partner dose 0.08 µM)	78.2	84	72.2	95.3	81.8	22.1	95	111	90.4
COc1cc([C@@H]2c3cc4c(cc3[C@@H](O[C@@H]3O[C@@H]5CO[C@@H](C)O[C@H]5[C@H](O)[C@H]3O)[C@H]3COC(=O)[C@H]23)OCO4)cc(OC)c1O [etoposide] + Cc1cc(Nc2cc(N3CCN(C)CC3)nc(/C=C/c3ccccc3)n2)n[nH]1 [ENMD2076] (first compound 0.02 µM, partner dose 0.04 µM)	69.3	40	90.4	173	90.4	187	78.5	57	68.9
COc1cc([C@@H]2c3cc4c(cc3[C@@H](O[C@@H]3O[C@@H]5CO[C@@H](C)O[C@H]5[C@H](O)[C@H]3O)[C@H]3COC(=O)[C@H]23)OCO4)cc(OC)c1O [etoposide] + Nc1ccn([C@@H]2O[C@H](CO)[C@@H](O)C2(F)F)c(=O)n1 [gemcitabine] (first compound 0.02 µM, partner dose 0.0004 µM)	160	49.3	279	213	80.1	165	–	196	127
Cc1ccc(Nc2nccc(N(C)c3ccc4c(C)n(C)nc4c3)n2)cc1S(N)(=O)=O [Pazopanib] + c1cc(-c2cnn3cc(-c4ccc(OCCN5CCCCC5)cc4)cnc23)ccn1 [Dorsomorphin] (first compound 0.4 µM, partner dose 0.4 µM)	229	16.8	119	–	48.2	64.2	104	29.6	92.6
O=c1[nH]nc(Sc2ncc([N+](=O)[O-])s2)n1-c1ccc2c(c1)OCCO2 + Nc1ncn([C@H]2C[C@H](O)[C@@H](CO)O2)c(=O)n1 [decitabine] (first compound 0.2 µM, partner dose 0.1 µM)	93.2	99.5	188	115	74	103	104	325	114
N#CC[C@H](C1CCCC1)n1cc(-c2ncnc3[nH]ccc23)cn1 [ruxolitinib] + CNC(=O)c1cc(Oc2ccc(NC(=O)Nc3ccc(Cl)c(C(F)(F)F)c3)cc2)ccn1 [sorafenib] (first compound 1 µM, partner dose 0.4 µM)	96	74.9	137	159	71	68.5	105	99.6	115
CCCCCCCCCCCCCCCCCCOP(=O)([O-])OC1CC[N+](C)(C)CC1 [Perifosine] + Oc1nc(-c2ccc(C(F)(F)F)cc2)nc2c1CSCC2 [XAV939] (first compound 0.4 µM, partner dose 2 µM)	65.3	13.9	180	–	69.9	155	93.5	844	63.2
CC[C@]1(O)C[C@H]2CN(CCc3c([nH]c4ccccc34)[C@@](C(=O)OC)(c3cc4c(cc3OC)N(C=O)[C@H]3[C@@](O)(C(=O)OC)[C@H](OC(C)=O)[C@]5(CC)C=CCN6CC[C@]43[C@@H]65)C2)C1 [vincristine] + Oc1cc(-c2nc(-c3ccccc3)[nH]c2-c2ccncc2)ccc1Cl [L779450] (first compound 0.0001 µM, partner dose 0.2 µM)	160	17.2	427	–	98.3	218	268	22.4	92.5
Cc1cn(-c2cc(NC(=O)c3ccc(C)c(Nc4nccc(-c5cccnc5)n4)c3)cc(C(F)(F)F)c2)cn1 [nilotinib] + Cc1cc(Nc2cc(N3CCN(C)CC3)nc(/C=C/c3ccccc3)n2)n[nH]1 [ENMD2076] (first compound 0.2 µM, partner dose 0.04 µM)	111	180	145	81.3	276	121	106	129	115
Cc1cn(-c2cc(NC(=O)c3ccc(C)c(Nc4nccc(-c5cccnc5)n4)c3)cc(C(F)(F)F)c2)cn1 [nilotinib] + NC(=O)c1ccc(N(C(N)=O)c2c(F)cccc2F)nc1-c1ccc(F)cc1F [VX702] (first compound 0.2 µM, partner dose 0.4 µM)	83.4	48.2	53.7	178	72.6	32.1	101	42.1	115
CCCCCCCCCCCCCCCCCCOP(=O)([O-])OC1CC[N+](C)(C)CC1 [Perifosine] + C[C@@H](Oc1cc(-c2cnn(C3CCNCC3)c2)cnc1N)c1c(Cl)ccc(F)c1Cl [Crizotinib] (first compound 0.4 µM, partner dose 0.2 µM)	72.3	39.9	139	72	73	57.9	89.6	129	112
O=C(/C=C/c1cccnc1)NCCCCC1CCN(C(=O)c2ccccc2)CC1 + COc1cc(N2CCC(N3CCN(C)CC3)CC2)ccc1Nc1ncc(Cl)c(Nc2ccccc2S(=O)(=O)C(C)C)n1 [NVP-TAE684] (first compound 0.01 µM, partner dose 0.08 µM)	73.5	34	42.2	–	110	3440	110	245	329
O=c1[nH]nc(Sc2ncc([N+](=O)[O-])s2)n1-c1ccc2c(c1)OCCO2 + c1cc(-c2cnn3cc(-c4ccc(OCCN5CCCCC5)cc4)cnc23)ccn1 [Dorsomorphin] (first compound 0.2 µM, partner dose 0.4 µM)	74.9	21.2	164	–	53.7	53.5	96.9	82.3	110
O=c1[nH]nc(Sc2ncc([N+](=O)[O-])s2)n1-c1ccc2c(c1)OCCO2 + COc1ccc(-c2ccc3c(N4CCOCC4)nc(N4C[C@@H](C)O[C@@H](C)C4)nc3n2)cc1CO [KU0063794] (first compound 0.2 µM, partner dose 0.02 µM)	34.6	29.9	46.4	–	118	106	158	52	93.6
O=C(Nc1cc(C(F)(F)F)cc(C(F)(F)F)c1)c1cc(Cl)ccc1O + O=S(=O)(c1ccccc1)N(CC(F)(F)F)c1ccc(C(O)(C(F)(F)F)C(F)(F)F)cc1 [T0901317] (first compound 0.016 µM, partner dose 1.4 µM)	85.5	26.4	123	–	80.2	124	127	52.3	459
O=C(/C=C/c1cccnc1)NCCCCC1CCN(C(=O)c2ccccc2)CC1 + COc1ccc(-c2ccc3c(N4CCOCC4)nc(N4C[C@@H](C)O[C@@H](C)C4)nc3n2)cc1CO [KU0063794] (first compound 0.01 µM, partner dose 0.02 µM)	101	21	98.5	–	110	4010	122	231	420
O=C(Nc1cc(C(F)(F)F)cc(C(F)(F)F)c1)c1cc(Cl)ccc1O + CC(C)CCN1c2nc(Nc3cc(F)c(O)c(F)c3)ncc2N(C)C(=O)C1C [BID1870] (first compound 0.016 µM, partner dose 0.2 µM)	43.6	37.2	82	–	115	111	90.4	124	97.5

Two entries picked at random from the list so far:
SMILES	cleaved PARP positive nuclei fraction (501Mel) [%]	cleaved PARP positive nuclei fraction (A101D) [%]	cleaved PARP positive nuclei fraction (A2058) [%]	cleaved PARP positive nuclei fraction (A375) [%]	cleaved PARP positive nuclei fraction (C32) [%]	cleaved PARP positive nuclei fraction (CBRC008) [%]	cleaved PARP positive nuclei fraction (CBRC014) [%]	cleaved PARP positive nuclei fraction (CBRC016) [%]	cleaved PARP positive nuclei fraction (CBRC017) [%]
O=c1[nH]nc(Sc2ncc([N+](=O)[O-])s2)n1-c1ccc2c(c1)OCCO2 + COc1ccc(-c2ccc3c(N4CCOCC4)nc(N4C[C@@H](C)O[C@@H](C)C4)nc3n2)cc1CO [KU0063794] (first compound 0.2 µM, partner dose 0.02 µM)	34.6	29.9	46.4	–	118	106	158	52	93.6
Cc1cn(-c2cc(NC(=O)c3ccc(C)c(Nc4nccc(-c5cccnc5)n4)c3)cc(C(F)(F)F)c2)cn1 [nilotinib] + Cc1cc(Nc2cc(N3CCN(C)CC3)nc(/C=C/c3ccccc3)n2)n[nH]1 [ENMD2076] (first compound 0.2 µM, partner dose 0.04 µM)	111	180	145	81.3	276	121	106	129	115
